Measurements from patent US20240197743A1, “WEE1 COMPOUND FOR TREATING UTERINE SEROUS CARCINOMA” (Recurium IP Holdings, LLC, priority 2021, published 2024).

Tested on: subjects with uterine serous carcinoma (USC)
Test: ZN-c3-001 (NCT04158336) open label, multicenter, Phase I dose escalation and expansion study; subjects with USC at doses ≥300 mg QD
Format: in vivo, human
Conditions: 14 USC subjects, ZN-c3 ≥300 mg QD oral
Description: ZN-c3-001 (NCT04158336) is an open label, multicenter, Phase I dose escalation and expansion study evaluating the safety and clinical activity of ZN-c3 in subjects with advanced or metastatic solid tumors, refractory to standard therapy or for whom no standard therapy is available. Oral, daily ZN-c3 dosing was escalated from 25 mg to 450 mg once daily (QD), with a recommended phase 2 dose of 300 mg QD. Here we report preliminary safety and efficacy results for subjects with USC who received ZN-c3 at doses ≥300 mg QD.

Compound: C=CCn1c(=O)c2cnc(Nc3ccc(N4CCN(C)CC4)cc3)nc2n1-c1ccc2c(n1)[C@@](O)(CC)CC2 [ZN-c3, (R)-2-allyl-1-(7-ethyl-7-hydroxy-6,7-dihydro-5H-cyclopenta[b]pyridin-2-yl)-6-((4-(4-methylpiperazin-1-yl)phenyl)amino)-1,2-dihydro-3H-pyrazolo[3,4-d]pyrimidin-3-one]
- duration of treatment, range: 2-36 weeks
- Median duration of treatment (as of Jan. 21, 2022): 12.4 weeks
